Results deposited as PubChem BioAssay AID652272 (Drosophila RNAi Screening Center, 2013).
In all, the deposit lists about 21,000 reagents; shown is a random part of those with a known target gene and a result. Over the whole deposit, 503 (2.4%) got an active call. 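Raw plate light values, not normalised; calls rest on replicate z-scores that were not deposited; hits include reporter decreases as well as increases.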 Entries without a mark were called inactive. Names joined by + are all predicted targets of the reagent. Reagent sequences are not shown. The record does not give: the amount of reagent, the time to read-out.

Assay: 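Finding fly genes that regulate Hedgehog signal transduction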 (primary screen)
Cell system: Drosophila clone 8 (Cl8) cells
Reagent: long dsRNA against Drosophila genes
Read-out: 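Plate reader light from a firefly reporter under a ptc promoter fragment that responds to Hedgehog, with Renilla light as transfection reference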
Reading the numbers: firefly Hh reporter signal: higher = more ptc reporter light; Renilla reference signal: higher = more Renilla control light
Active means: 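Hit when the z-score averaged over two replicates is under -2 or over +3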
Meaning of the calls: active = hit: reporter lowered or raised; inactive = not a hit

| predicted target | dsRNA | firefly Hh reporter signal, replicate 1 | firefly Hh reporter signal, replicate 2 | firefly Hh reporter signal, replicate 3 | Renilla reference signal, replicate 1 | Renilla reference signal, replicate 2 |
| --- | --- | --- | --- | --- | --- | --- |
| APP-BP1 (beta-Amyloid precursor protein binding protein 1) | DRSC10920 | 60937 | 53539 | 56939 | 5082 | 4384 |
| rdgA (retinal degeneration A) | DRSC17863 | 60425 | 2.91e5 | – | 2636 | 12029 |
| rdgA (retinal degeneration A) | DRSC18036 | 90356 | 3.09e5 | – | 3082 | 12951 |
| rdgA (retinal degeneration A) | DRSC18827 | 1.01e5 | 92013 | – | 2528 | 2240 |
| Cyp311a1 (Cytochrome P450 311a1) | DRSC20239 | 1.07e5 | 4.01e5 | – | 3213 | 14085 |
| CG16719 | DRSC10222 | 1.07e5 | 67334 | – | 4471 | 3076 |
| CG14502 | DRSC06473 | 89804 | 59689 | – | 4667 | 2611 |
| Listericin | DRSC07334 | 1.06e5 | 59321 | – | 2765 | 4844 |
| lncRNA:CR43372 (long non-coding RNA:CR43372) | DRSC15041 | 7.91e5 | 1.50e5 | – | 46106 | 2710 |
| Mgat4a | DRSC09326 | 3.30e5 | – | – | 7965 | – |
| Mgat4a | DRSC11070 | 83158 | – | – | 3315 | 2445 |
| Sry-beta (Serendipity beta) | DRSC16868 | 71335 (active) | 57110 | – | 1117 | 954 |
| CG9586 | DRSC03270 | 1.42e5 | 63770 | – | 3814 | 6048 |
| Rep (Rab escort protein) | DRSC07526 | 97402 | 66874 | – | 4409 | 3000 |
| Spn43Ab (Serpin 43Ab) | DRSC06781 | 83501 | 45387 | – | 1865 | 3361 |
| sa (spermatocyte arrest) | DRSC11649 | 74140 | 5.47e5 | 1.19e5 | 2797 | 5241 |
| Ugt35B1 (UDP-glycosyltransferase family 35 member B1) | DRSC16893 | 1.05e5 | 76596 | – | 4163 | 3036 |
| CG32576 | DRSC19136 | 5.03e5 | 2.78e5 | – | 30256 | 6162 |
| GluRIA (Glutamate receptor IA) | DRSC11176 | 56343 | 76604 | – | 6205 | 5653 |
| HERC2 (HECT and RLD domain containing protein 2) | DRSC20566 | 66354 | 2.01e5 | – | 1379 | 9493 |
| CG43658 | DRSC19455 | 62411 | 3.20e5 | – | 1995 | 10249 |
| CG43658 | DRSC20111 | 66518 | 2.71e5 | – | 1765 | 9849 |
| CG12448 | DRSC01967 | 72112 | 61016 | – | 1808 | 5140 |
| Srr (Serine racemase) | DRSC16382 | 97464 | 1.54e5 | – | 2416 | 4281 |
| Rsph1 (Radial spoke head protein 1) | DRSC02864 | 1.12e5 | 61936 | – | 2641 | 5089 |
| moon (moonshiner) | DRSC19497 | 78567 | 2.47e5 | – | 1270 | 9309 |
| RpL10Aa (Ribosomal protein L10Aa) | DRSC15518 | 36925 | 45633 | – | 1153 | 1669 |
| U2A | DRSC06445 | 76259 | 47642 | – | 1803 | 3820 |
| fs(1)N (female sterile (1) Nasrat) | DRSC18578 | 84626 | 2.92e5 | – | 2502 | 10656 |
| Tfb1 (Transcription factor B1) | DRSC07082 | 1.29e5 | 1.20e5 | – | 4684 | 4381 |
| Ccp84Ad | DRSC12589 | 86396 | 5.13e5 | 1.04e5 | 3431 | 4755 |
| CG14455 | DRSC11712 | 76007 | 1.12e5 | – | 2944 | 2984 |
| CG33796 | DRSC09417 | 2.36e5 | – | – | 4944 | – |
| CG9876 | DRSC04586 | 1.23e5 | 74817 | – | 3587 | 6384 |
| CG8100 | DRSC10961 | 78009 | – | – | 5922 | 2372 |
| Osi3 (Osiris 3) | DRSC12175 | 97697 | 96832 | – | 3896 | 2628 |
| Rab21 | DRSC20968 | 1.73e5 | 2.01e5 | – | 6645 | 10614 |
| Epp (Ecdysteroid phosphate phosphatase) | DRSC14607 | 1.53e5 | 86040 | – | 6170 | 3636 |
| CG43428 | DRSC06205 | 77568 | 38982 | – | 1973 | 3458 |
| Smurf (SMAD specific E3 ubiquitin protein ligase) | DRSC07641 | 82224 | 42599 | – | 2117 | 3045 |
| CHMP2B (Charged multivesicular body protein 2b) | DRSC10436 | 1.29e5 | 84632 | – | 4784 | 2992 |
| Ube4B (Ubiquitination factor E4B) | DRSC03277 | 84834 | 51946 | – | 3268 | 2048 |
| CG14966 | DRSC08425 | 70640 | 25144 | – | 2775 | 281 |
| CG42750 | DRSC02458 | 2.23e5 (active) | 1.55e5 | 51029 | 18898 | 3728 |
| CG42750 | DRSC03019 | 1.55e5 | 60217 | – | 4173 | 3186 |
| CG42750 | DRSC03024 | 96210 | 51682 | – | 2471 | 4626 |
| Stt3A | DRSC20514 | 1.12e5 | 1.31e5 | – | 2695 | 3021 |
| MBD-like (Methyl-CpG binding domain protein-like) | DRSC16996 | 58973 | 81922 | – | 2331 | 2354 |
| dob (doppelganger von brummer) | DRSC19948 | 1.50e5 | 97010 | – | 3562 | 2293 |
| CG14689 | DRSC14912 | 64130 | 1.13e5 | – | 1930 | 3355 |
| Dsor1 (Downstream of raf1) | DRSC18462 | 1.02e5 | 79840 | – | 2224 | 1756 |
| CG33757 | DRSC05159 | 1.05e5 | 2.48e5 | – | 2560 | 9430 |
| Sec24CD (Secretory 24CD) | DRSC00300 | 1.33e5 | 78922 | – | 4693 | 3165 |
| Bug22 (Basal body up regulated gene 22) | DRSC02842 | 86272 | 46267 | – | 2464 | 3968 |
| Hrb27C (Heterogeneous nuclear ribonucleoprotein at 27C) | DRSC03347 | 68976 | 38660 | – | 3362 | 2128 |
| Ask1 (Apoptotic signal-regulating kinase 1) | DRSC16789 | 9.12e5 | 2.47e5 | – | 47778 | 6769 |
| Golgin84 (Golgin-84) | DRSC15269 | 5.01e5 | 95925 | – | 23610 | 3123 |
| Akh (Adipokinetic hormone) | DRSC08138 | 80826 | 53448 | – | 2485 | 3765 |
| salr (spalt-related) | DRSC03607 | 73360 | 72173 | – | 1843 | 6689 |
| CG10931 | DRSC06015 | 1.09e5 | 39318 | – | 3298 | 2905 |
| STUB1 (STIP1 homology and U-box containing protein 1) | DRSC03282 | 1.16e5 | 70902 | – | 2908 | 5771 |
| Corin | DRSC06818 | 1.61e5 | 77417 | – | 3830 | 5638 |
| CG11345 | DRSC08176 | 54384 | 71365 | – | 4672 | 4488 |
| Sbat (Sabbat) | DRSC00160 | 5.24e5 | 1.81e5 | – | 24545 | 7442 |
| CG17005 | DRSC02556 | 66115 | 49962 | – | 2504 | 4755 |
| Flo1 (Flotillin 1) | DRSC07427 | 91222 | 59779 | – | 4538 | 2697 |
| CG42272 | DRSC08766 | 1.25e5 | 2.64e5 | – | 9549 | 11008 |
| CG42362 + CG42363 | DRSC04265 | 1.39e5 | 62693 | – | 5618 | 2317 |
| CG11893 | DRSC14429 | 6.83e5 | 1.56e5 | – | 32624 | 4628 |
| CG5160 | DRSC02821 | 1.56e5 | 68145 | – | 3970 | 7014 |
| spz3 (spatzle 3) | DRSC02391 | 81346 | 42305 | – | 2357 | 3895 |
| spz3 (spatzle 3) | DRSC03008 | 1.17e5 | 62101 | – | 3168 | 5104 |
| CG7275 | DRSC10796 | 98640 | 59424 | – | 3916 | 2684 |

Called active, among the entries above:
| predicted target | dsRNA | firefly Hh reporter signal, replicate 1 | firefly Hh reporter signal, replicate 2 | firefly Hh reporter signal, replicate 3 | Renilla reference signal, replicate 1 | Renilla reference signal, replicate 2 |
| --- | --- | --- | --- | --- | --- | --- |
| Sry-beta (Serendipity beta) | DRSC16868 | 71335 (active) | 57110 | – | 1117 | 954 |
| CG42750 | DRSC02458 | 2.23e5 (active) | 1.55e5 | 51029 | 18898 | 3728 |
